PubChem BioAssay AID1224826 – NIAID – 2016

- Purpose: 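Regulators of Tlr4 signalling leading to Tnf-alpha expression in macrophages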 (primary screen)
- System: RAW264.7 G9 macrophages from mouse bearing reporters for p65 (GFP) and the Tnf promoter (mCherry)
- Knock-down reagent: siRNA pool against mouse genes, 100 nM
- Timing: 16 h of LPS stimulation, after 2 days of siRNA transfection
- Treatment: bacterial lipopolysaccharide (Salmonella minnesota R595), 10 ng/ml
- Detection: 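Nuclear mCherry signal of the Tnf promoter reporter measured by imaging after background removal, scaled to each plate median and turned into robust z-scores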
- Direction: Tnf reporter robust z-score: higher = stronger Tnf promoter reporter signal after LPS; Tnf reporter intensity: higher = stronger Tnf promoter reporter signal
- Hit rule: 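Called active when robust z-score is at most -1.3, matching the median of the Tlr4 knock-down control, or over 3; control wells and wells with under 50 cells never active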
- Meaning of the calls: active = Tnf reporter clearly lowered or raised; inactive = no clear change in Tnf reporter
Shown is a random part of about 17,000 deposited reagents. Over the whole deposit, about 1,110 (6.6%) got an active call. 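Active means lowered or raised reporter signal; replicate intensities are raw and not normalised per plate.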 Reagent sequences are not shown.

| Target gene | Tnf reporter robust z-score | fewer than 50 cells in well | Tnf reporter intensity, replicate 1 | Tnf reporter intensity, replicate 2 | Call |
| --- | --- | --- | --- | --- | --- |
| Cdkn2aip | 0.11 | enough cells in well | 148 | 83.4 | inactive |
| Nmi | -0.3 | enough cells in well | 185 | 188 | inactive |
| Glud1 | -0.26 | enough cells in well | 233 | 157 | inactive |
| Maoa | 0.21 | enough cells in well | 298 | 207 | inactive |
| H2-Q1 | -0.08 | enough cells in well | 194 | 216 | inactive |
| Fam151a | -0.67 | enough cells in well | 123 | 162 | inactive |
| Usp18 | -1.01 | enough cells in well | 157 | 145 | inactive |
| Il1b | – | fewer than 50 cells per well; well left out of calls | 217 | 74.5 | inactive |
| Oard1 | -1.32 | enough cells in well | 90 | 128 | active |
| Or8a1b | 0.61 | enough cells in well | 221 | 102 | inactive |
| Zfp318 | 0.67 | enough cells in well | 156 | 148 | inactive |
| Senp6 | 0.36 | enough cells in well | 115 | 111 | inactive |
| Commd4 | -0.24 | enough cells in well | 194 | 137 | inactive |
| Samt4 | 1.14 | enough cells in well | 291 | 91.2 | inactive |
| Tob2 | -0.19 | enough cells in well | 298 | 74.7 | inactive |
| Ptpa | 0.68 | enough cells in well | 282 | 254 | inactive |
| Lmntd1 | – | fewer than 50 cells per well; well left out of calls | 211 | 106 | inactive |
| Ywhab | -0.7 | enough cells in well | 171 | 180 | inactive |
| 5031434C07Rik | – | fewer than 50 cells per well; well left out of calls | 185 | 186 | inactive |
| Zfp281 | -0.69 | enough cells in well | 167 | 187 | inactive |
| Sult1e1 | 0.34 | enough cells in well | 319 | 233 | inactive |
| Ctsj | -0.46 | enough cells in well | 116 | 191 | inactive |
| Agbl5 | 3.11 | enough cells in well | 387 | 367 | active |
| Aoc3 | -0.86 | enough cells in well | 151 | 129 | inactive |
